{
  "sequences": {"note": "Amino acid sequences for entries named in this document (tags omitted).", "UniProt Q03164, whole entry, looked up": "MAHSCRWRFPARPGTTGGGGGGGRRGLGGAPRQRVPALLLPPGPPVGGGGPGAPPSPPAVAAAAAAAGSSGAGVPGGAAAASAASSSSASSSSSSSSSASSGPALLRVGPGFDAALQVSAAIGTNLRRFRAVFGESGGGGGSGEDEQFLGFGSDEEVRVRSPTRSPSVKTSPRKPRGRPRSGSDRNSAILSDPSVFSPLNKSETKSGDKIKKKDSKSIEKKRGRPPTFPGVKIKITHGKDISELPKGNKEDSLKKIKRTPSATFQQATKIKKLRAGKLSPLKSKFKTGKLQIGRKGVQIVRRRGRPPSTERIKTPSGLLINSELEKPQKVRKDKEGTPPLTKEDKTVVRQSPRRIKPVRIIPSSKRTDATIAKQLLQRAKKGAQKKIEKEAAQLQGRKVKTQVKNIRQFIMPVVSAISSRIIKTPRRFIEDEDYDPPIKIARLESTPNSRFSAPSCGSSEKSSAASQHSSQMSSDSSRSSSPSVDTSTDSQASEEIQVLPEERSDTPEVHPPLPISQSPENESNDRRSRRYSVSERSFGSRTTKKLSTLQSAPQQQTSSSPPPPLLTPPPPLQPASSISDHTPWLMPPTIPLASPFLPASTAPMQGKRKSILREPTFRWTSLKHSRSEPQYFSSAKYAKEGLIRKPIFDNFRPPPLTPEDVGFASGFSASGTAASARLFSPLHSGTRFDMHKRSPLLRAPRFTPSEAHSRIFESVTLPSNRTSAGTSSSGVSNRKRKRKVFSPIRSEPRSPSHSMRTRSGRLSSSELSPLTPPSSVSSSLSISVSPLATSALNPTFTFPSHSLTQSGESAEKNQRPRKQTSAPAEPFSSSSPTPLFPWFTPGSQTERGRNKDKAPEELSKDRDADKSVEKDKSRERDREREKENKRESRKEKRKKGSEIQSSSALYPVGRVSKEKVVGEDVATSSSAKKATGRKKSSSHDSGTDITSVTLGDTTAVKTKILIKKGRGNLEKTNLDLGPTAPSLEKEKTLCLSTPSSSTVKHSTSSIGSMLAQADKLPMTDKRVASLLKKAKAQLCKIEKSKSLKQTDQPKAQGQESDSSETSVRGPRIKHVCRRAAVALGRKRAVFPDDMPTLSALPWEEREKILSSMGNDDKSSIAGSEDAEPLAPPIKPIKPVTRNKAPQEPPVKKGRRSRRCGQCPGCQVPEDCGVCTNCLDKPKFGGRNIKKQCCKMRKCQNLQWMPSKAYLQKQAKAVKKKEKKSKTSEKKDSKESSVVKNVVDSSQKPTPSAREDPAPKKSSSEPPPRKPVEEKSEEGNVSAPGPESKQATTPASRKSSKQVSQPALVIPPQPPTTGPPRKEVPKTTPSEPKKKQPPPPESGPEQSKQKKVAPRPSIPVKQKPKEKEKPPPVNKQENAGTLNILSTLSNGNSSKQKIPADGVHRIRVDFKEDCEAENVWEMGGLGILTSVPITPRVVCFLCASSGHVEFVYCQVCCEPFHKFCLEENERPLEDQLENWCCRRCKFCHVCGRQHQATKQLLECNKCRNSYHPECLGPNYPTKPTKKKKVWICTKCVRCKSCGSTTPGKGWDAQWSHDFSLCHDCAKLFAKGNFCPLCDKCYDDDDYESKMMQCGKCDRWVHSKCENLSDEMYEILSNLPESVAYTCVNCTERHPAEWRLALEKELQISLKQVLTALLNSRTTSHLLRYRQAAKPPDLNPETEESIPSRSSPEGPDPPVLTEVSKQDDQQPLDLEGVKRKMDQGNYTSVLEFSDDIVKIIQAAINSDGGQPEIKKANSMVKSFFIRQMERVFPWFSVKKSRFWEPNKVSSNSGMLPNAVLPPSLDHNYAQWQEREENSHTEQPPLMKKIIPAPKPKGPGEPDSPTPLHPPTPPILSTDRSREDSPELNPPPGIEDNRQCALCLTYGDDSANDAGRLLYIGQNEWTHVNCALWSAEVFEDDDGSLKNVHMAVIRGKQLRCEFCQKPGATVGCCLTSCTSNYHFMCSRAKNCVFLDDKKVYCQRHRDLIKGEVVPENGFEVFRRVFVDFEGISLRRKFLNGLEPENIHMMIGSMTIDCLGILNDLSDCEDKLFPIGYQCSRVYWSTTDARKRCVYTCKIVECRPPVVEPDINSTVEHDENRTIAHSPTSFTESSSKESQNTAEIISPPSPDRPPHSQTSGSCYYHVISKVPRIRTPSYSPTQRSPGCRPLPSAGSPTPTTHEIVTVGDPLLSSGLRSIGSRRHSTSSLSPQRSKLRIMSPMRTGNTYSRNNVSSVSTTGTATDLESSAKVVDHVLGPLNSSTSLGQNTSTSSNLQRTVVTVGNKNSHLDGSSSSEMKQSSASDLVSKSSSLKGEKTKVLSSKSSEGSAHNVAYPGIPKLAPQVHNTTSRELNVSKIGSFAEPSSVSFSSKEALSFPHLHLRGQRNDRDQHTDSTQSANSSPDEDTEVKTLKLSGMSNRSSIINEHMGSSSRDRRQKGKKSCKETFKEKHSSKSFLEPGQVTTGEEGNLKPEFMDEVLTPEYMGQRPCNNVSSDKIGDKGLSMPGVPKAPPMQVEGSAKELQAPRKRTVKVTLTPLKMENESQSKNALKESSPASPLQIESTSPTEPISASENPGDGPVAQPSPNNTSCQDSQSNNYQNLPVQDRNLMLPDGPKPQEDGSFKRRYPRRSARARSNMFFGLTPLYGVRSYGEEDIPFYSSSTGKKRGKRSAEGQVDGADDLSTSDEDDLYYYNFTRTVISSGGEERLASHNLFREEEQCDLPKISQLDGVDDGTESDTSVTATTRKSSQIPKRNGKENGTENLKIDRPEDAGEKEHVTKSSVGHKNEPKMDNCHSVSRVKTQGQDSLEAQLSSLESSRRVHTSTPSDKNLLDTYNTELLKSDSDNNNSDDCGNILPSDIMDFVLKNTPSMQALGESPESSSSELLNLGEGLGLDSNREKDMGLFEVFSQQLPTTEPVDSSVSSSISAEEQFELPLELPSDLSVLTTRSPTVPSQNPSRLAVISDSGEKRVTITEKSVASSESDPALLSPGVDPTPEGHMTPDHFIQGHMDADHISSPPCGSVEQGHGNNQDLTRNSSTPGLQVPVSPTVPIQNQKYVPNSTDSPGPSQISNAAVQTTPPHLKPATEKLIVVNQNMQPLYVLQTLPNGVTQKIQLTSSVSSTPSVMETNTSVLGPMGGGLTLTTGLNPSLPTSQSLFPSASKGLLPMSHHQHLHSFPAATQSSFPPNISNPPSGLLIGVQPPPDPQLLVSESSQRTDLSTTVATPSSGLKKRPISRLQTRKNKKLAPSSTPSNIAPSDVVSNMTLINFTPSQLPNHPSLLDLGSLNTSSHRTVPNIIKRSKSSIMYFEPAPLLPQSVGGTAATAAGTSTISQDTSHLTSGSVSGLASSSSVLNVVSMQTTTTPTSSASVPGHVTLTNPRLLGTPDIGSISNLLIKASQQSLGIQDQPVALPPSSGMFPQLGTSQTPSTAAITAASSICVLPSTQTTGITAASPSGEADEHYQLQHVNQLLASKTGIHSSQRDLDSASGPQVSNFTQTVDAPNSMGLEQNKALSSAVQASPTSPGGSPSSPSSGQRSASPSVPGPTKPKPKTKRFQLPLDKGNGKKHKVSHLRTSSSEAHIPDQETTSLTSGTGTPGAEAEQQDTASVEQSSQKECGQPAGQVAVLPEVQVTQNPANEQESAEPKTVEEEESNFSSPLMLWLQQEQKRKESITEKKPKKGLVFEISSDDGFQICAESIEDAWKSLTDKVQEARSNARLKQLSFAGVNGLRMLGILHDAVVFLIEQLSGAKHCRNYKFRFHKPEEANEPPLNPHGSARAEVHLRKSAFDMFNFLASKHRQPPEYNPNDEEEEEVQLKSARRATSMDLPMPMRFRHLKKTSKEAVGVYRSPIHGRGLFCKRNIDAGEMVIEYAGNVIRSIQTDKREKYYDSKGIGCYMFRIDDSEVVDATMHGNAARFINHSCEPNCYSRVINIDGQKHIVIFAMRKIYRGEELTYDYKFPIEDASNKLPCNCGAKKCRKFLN"},
  "source": "PubChem BioAssay AID2662",
  "about": "(National Center for Advancing Translational Sciences (NCATS), 2010)",
  "note": "Out of some 290,000 compounds screened, about 110 (0.038%) were called active. The shares of active, inactive and inconclusive entries below differ from those in the screen. The call rests on the fitted dose curve; in most records, active means well fitted inhibition curve with a large enough effect in the polarisation, with a control signal flat (not every such curve was filed as active); inconclusive means small, poorly fitted or top-dose-only effect, or effect the other way, or a change in a side signal; inactive means no such curve, though single readings can be large or run the other way; the % refers to the polarisation. Potencies beside an inconclusive call are fits to weak or partial responses and may not hold up. A note “side channel” means that the fit belongs to a control or component signal, not to the main read-out. Potency means the concentration at half of the fitted maximal effect.",
  "data": [
    {"biological_target": "Histone-lysine N-methyltransferase 2A (Homo sapiens) (UniProt Q03164)", "test": "qHTS Fluorescence Polarization Assay for Inhibitors of MLL CXXC domain - DNA interaction", "conditions": "MLL-CXXC / FITC-HOXA9 DNA fluorescence polarization; activity change, negative = inhibition: at 115 µM (top of the series)", "in_short": "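Fluorescence polarization: 7 uM MLL-CXXC (stock) preincubated 5 min with compounds, then 50 nM fluorescein-HOX-A9 DNA (stock) added; 30 min ambient. Buffer 50 mM Tris-HCl pH 7.5, 50 mM NaCl, 1 mM DTT, 0.05% BSA.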", "values": [
      {"smiles": "COc1ccc(C)cc1Nc1n[n+](-c2ccccc2)c(-c2ccc(NC(C)=O)cc2)s1", "Potency": "inconclusive: 31.6 µM [quencher, side channel, partial curve]"},
      {"smiles": "COc1ccc(OCCNC(=O)/C=C/c2ccccc2)cc1", "Potency": "inconclusive: 7.08 µM [quencher, side channel, full curve]"},
      {"smiles": "CC(/C=C/c1ccc(N(C)C)cc1)=N\\N=C(/N)SC1CC(=O)N(c2ccc(C(=O)O)cc2)C1=O", "note": "(stereo unspecified)", "Potency": "inconclusive: 20 µM [fluorescent, side channel, partial curve]"},
      {"smiles": "CCOC(=O)COc1c(OC)cc(Cl)cc1C1Nc2ccccc2C(=O)N1c1ccccc1", "note": "(stereo unspecified)", "activity change, negative = inhibition": "inactive: 2.38%"},
      {"smiles": "CC[n+]1ccccc1/C=C1\\Sc2ccc(C)cc2N1C", "Potency": "inconclusive: 7.94 µM [fluorescent, side channel, partial curve]"},
      {"smiles": "Cc1ccc(C(NC(=O)N2CC(C)OC(C)C2)C(Cl)Cl)cc1F", "note": "(stereo unspecified)", "Potency": "inconclusive: 70.8 µM [fluorescent, side channel, single point]"},
      {"smiles": "CC(C)NC(=O)NC(=O)CSc1nnc(COc2ccccc2F)n1C(C)C1CC2CCC1C2", "note": "(stereo unspecified)", "Potency": "inconclusive: 50.1 µM [quencher, side channel, single point]"},
      {"smiles": "COc1c(Cl)cnn(-c2ccc(C)cc2)c1=O", "Potency": "inconclusive: 14.1 µM [quencher, side channel, single point]"},
      {"smiles": "CCOC(=O)c1nnn(-c2nonc2-n2cccc2)c1C", "activity change, negative = inhibition": "inactive: -4.18%"},
      {"smiles": "CSc1nnc(N2C(=O)C(O)=C(C(=O)c3ccc(C)o3)C2c2ccc(C)cc2)s1", "note": "(stereo unspecified)", "Potency": "inconclusive: 0.891 µM [fluorescent, side channel, full curve, poor fit]"},
      {"smiles": "Cn1nc(C(F)(F)F)cc1Oc1ncc(C(F)(F)F)cc1Cl", "Potency": "inconclusive: 2 µM [quencher, side channel, full curve]"},
      {"smiles": "COc1ccc(OC)c(NC(=O)C(=O)NNC(=O)c2cccs2)c1", "Potency": "inconclusive: 14.1 µM [inhibitor, single point]"},
      {"smiles": "CCCCCCCCOc1ccc(C2OC34CCCCC3C(C#N)(C#N)C2(C#N)C(=N)O4)cc1", "note": "(stereo unspecified)", "Potency": "inconclusive: 35.5 µM [inhibitor, single point]"},
      {"smiles": "Cc1ccc(NC(=O)CN2CCN(Cc3ccccc3)CC2)cc1", "activity change, negative = inhibition": "inactive: 3.22%"},
      {"smiles": "O=C(Cn1c(=O)n(Cc2ccccc2)c(=O)c2cc(Cl)ccc21)NCC1CCCO1", "note": "(stereo unspecified)", "Potency": "inconclusive: 3.16 µM [fluorescent, side channel, full curve]"},
      {"smiles": "CC1CCc2[nH]c3ccc(C(=O)O)cc3c2C1", "note": "(stereo unspecified)", "Potency": "inconclusive: 44.7 µM [inhibitor, single point]"},
      {"smiles": "Cc1sc2ncnc(N3CCC(C(=O)NCC(=O)Nc4ccc(F)c(F)c4)CC3)c2c1C", "Potency": "inconclusive: 14.1 µM [fluorescent, side channel, single point]"},
      {"smiles": "CC(C)Oc1ccc(N2C(=O)c3ccccc3C2=O)cc1", "Potency": "inconclusive: 14.1 µM [fluorescent, side channel, single point]"},
      {"smiles": "Cc1cccc(C(=O)NNC(=O)CN2C(=O)c3ccccc3C2=O)c1", "Potency": "inconclusive: 63.1 µM [inhibitor, single point]"},
      {"smiles": "[O-][n+]1c2c(c3c4non(O)c4ccc31)CCCC2", "Potency": "inconclusive: 89.1 µM [quencher, side channel, single point]"},
      {"smiles": "Cc1cc2cc(C#N)c(N3CCOCC3)nc2cc1Cl", "Potency": "inconclusive: 70.8 µM [inhibitor, single point]"},
      {"smiles": "CN(Cc1ccccc1)C(=O)C1CCCN(Cc2ccc(Cl)cc2)C1", "note": "(stereo unspecified)", "activity change, negative = inhibition": "inactive: 1.62%"},
      {"smiles": "Cc1cc(/C=C2/C(=O)N(C)C(=S)N2C)ccc1N1CCCC1", "Potency": "inconclusive: 31.6 µM [fluorescent, side channel, partial curve]"},
      {"smiles": "COc1cccc(C(=O)NCCCNC(=O)c2cccc(OC)c2)c1", "activity change, negative = inhibition": "inactive: -1.72%"},
      {"smiles": "CN(c1ccccc1)S(=O)(=O)c1cccc(C(=O)OCC(=O)NCc2ccco2)c1", "Potency": "inconclusive: 1.41 µM [fluorescent, side channel, full curve]"},
      {"smiles": "Cc1c(C)n(-c2ccccc2)c2ncnc(NCCCN(C)C)c12", "Potency": "inconclusive: 89.1 µM [fluorescent, side channel, partial curve]"},
      {"smiles": "COCCCNC(=S)Nc1ccc(S(=O)(=O)Nc2cc(OC)nc(OC)n2)cc1", "Potency": "inconclusive: 14.1 µM [quencher, side channel, single point]"},
      {"smiles": "Cc1ccc(-c2c(C)nn3c(N4CCOCC4)cc(C)nc23)cc1", "Potency": "inconclusive: 70.8 µM [quencher, side channel, single point]"},
      {"smiles": "CC1(C)C=C(c2ccc(C=O)s2)CC(C)(C)N1", "activity change, negative = inhibition": "inactive: 11.1%"},
      {"smiles": "COc1cccc(/C=N/NC(=O)c2nc(-c3ccccc3)cc(-c3ccccc3)n2)c1O", "activity change, negative = inhibition": "inactive: 9.89%"},
      {"smiles": "Cc1cc2c(c(=O)o1)C1(C(=O)N(CC(=O)O)c3ccccc31)C(C#N)=C(N)O2", "note": "(stereo unspecified)", "Potency": "inconclusive: 28.2 µM [fluorescent, side channel, partial curve]"},
      {"smiles": "COC(=O)C1CN(S(=O)(=O)c2ccc(C)cc2)CCN1S(=O)(=O)c1ccc(C)cc1", "note": "(stereo unspecified)", "Potency": "inconclusive: 70.8 µM [fluorescent, side channel, single point]"},
      {"smiles": "COc1ccccc1C(=O)Nc1nc2nc(-c3ccccc3)cc(=O)n2[nH]1", "Potency": "inconclusive: 39.8 µM [fluorescent, side channel, single point]"},
      {"smiles": "Cc1ccc(S(=O)(=O)c2c(C)c(C)c(C)[nH]c2=O)cc1", "Potency": "inconclusive: 63.1 µM [fluorescent, side channel, single point]"},
      {"smiles": "CN(CC(=O)NCc1ccncc1)S(=O)(=O)c1cc(Cl)ccc1Cl", "Potency": "inconclusive: 1.12 µM [fluorescent, side channel, full curve, poor fit]"},
      {"smiles": "COc1ccc(C(=O)NN2CCOCC2)cc1[N+](=O)[O-]", "Potency": "inconclusive: 8.91 µM [fluorescent, side channel, partial curve]"},
      {"smiles": "Cc1c(CCC(C)C)c(=O)n2c([nH]c3ccccc32)c1C#N", "activity change, negative = inhibition": "inactive: -6.96%"},
      {"smiles": "O=C(/C=C/c1ccc2ccccc2n1)c1cc(Cl)ccc1O", "Potency": "inconclusive: 10 µM [fluorescent, side channel, partial curve]"},
      {"smiles": "CCCN(C(=O)c1cn(C)c(=O)c2ccccc12)c1ccccc1C", "activity change, negative = inhibition": "inactive: -1.5%"},
      {"smiles": "Cc1ccccc1NC(=S)Nc1cccc2cnccc12", "Potency": "inconclusive: 35.5 µM [quencher, side channel, partial curve, poor fit]"},
      {"smiles": "O=C(O)CCn1cc(/C=C\\C(=O)c2ccc(Cl)cc2)c(-c2cccc(Br)c2)n1", "Potency": "inconclusive: 70.8 µM [inhibitor, single point]"},
      {"smiles": "Nc1ccc2nc3c(=O)n(CCc4ccccc4)c(=O)[nH]c3nc2c1", "Potency": "inconclusive: 10 µM [fluorescent, side channel, full curve]"},
      {"smiles": "O=C1c2ccccc2-c2onc3ccc(NCCCn4ccnc4)c1c23", "Potency": "inconclusive: 3.55 µM [fluorescent, side channel, full curve]"},
      {"smiles": "CCN1CCN(CCCNC(=O)c2cc3cc4ccc(OC)cc4nc3o2)CC1", "activity change, negative = inhibition": "inactive: -11.6%"},
      {"smiles": "CCC(=O)N1CCN(c2ccnc3cc(Cl)ccc23)CC1", "activity change, negative = inhibition": "inactive: -1.8%"},
      {"smiles": "COC(=O)c1ccc(=O)c2nc3/c(=C/O)c(O)cc(=O)c3[nH]c12", "activity change, negative = inhibition": "inactive: -25.4%"},
      {"smiles": "COc1ccc(NC(=O)C(c2ccccc2)c2ccccc2)cn1", "Potency": "inconclusive: 15.8 µM [inhibitor, single point]"},
      {"smiles": "COc1cc(Br)c(-c2sc(Nc3ccccc3)n[n+]2-c2ccc(F)cc2)cc1OC", "Potency": "inconclusive: 89.1 µM [quencher, side channel, single point]"},
      {"smiles": "Cc1cc(C)c2oc(-c3cccc(N)c3)nc2c1", "activity change, negative = inhibition": "inactive: -11.4%"},
      {"smiles": "O=C(c1cccnc1)N1CCN(S(=O)(=O)c2cccs2)CC1", "Potency": "inconclusive: 14.1 µM [quencher, single point]"},
      {"smiles": "C/C(=N\\NC(=O)c1ccc(C)cc1C)c1ccc2c(c1)Nc1ccccc1S2", "activity change, negative = inhibition": "inactive: 23.4%"},
      {"smiles": "COCCCNC(=O)CNC(=O)c1nn(-c2ccc(OC)c(Cl)c2)c(=O)c2ccccc12", "Potency": "inconclusive: 8.91 µM [inhibitor, single point]"},
      {"smiles": "CCOc1cccc2sc(N(CCCN(C)C)C(=O)c3ccc(S(=O)(=O)N4CCCCCC4)cc3)nc12", "Potency": "inconclusive: 14.1 µM [fluorescent, side channel, single point]"},
      {"smiles": "O=C(CNC(=O)c1ccncc1)N/N=C/c1cc(Br)ccc1O", "activity change, negative = inhibition": "inactive: 0.748%"},
      {"smiles": "Cc1ccccc1OCCN1C(=O)C(=O)c2cccc(C)c21", "Potency": "inconclusive: 89.1 µM [quencher, side channel, single point]"},
      {"smiles": "CC(=O)Nc1cccc(NC(=O)CSc2ccc(-c3cccnc3)nn2)c1", "Potency": "inconclusive: 15.8 µM [fluorescent, side channel, single point]"},
      {"smiles": "O=C(Nc1cccc(Cl)c1N1CCOCC1)c1ccc2c(c1)OCCO2", "Potency": "inconclusive: 70.8 µM [inhibitor, single point]"},
      {"smiles": "COc1ccc(CCNC(=O)COc2ccc(S(=O)(=O)NC3CCCCC3)cc2Cl)cc1OC", "Potency": "inconclusive: 89.1 µM [quencher, side channel, single point]"},
      {"smiles": "CCCCC1(Cc2ccc(OC)c([N+](=O)[O-])c2)C(=O)N(c2ccccc2)N(c2ccccc2)C1=O", "activity change, negative = inhibition": "inactive: 6.06%"},
      {"smiles": "CCOC1=C/C(=C/c2c(N)n3nc(S(=O)(=O)CC)sc3nc2=O)C=CC1=O", "Potency": "inconclusive: 15.8 µM [fluorescent, side channel, partial curve]"},
      {"smiles": "O=C1NN(c2ccccc2)C(=O)/C1=C\\c1cccc(OC(=O)c2cccs2)c1", "Potency": "inconclusive: 25.1 µM [inhibitor, partial curve]"}
    ]}
  ]
}
